Drawing on PMC3946611, “hCLE/C14orf166 Associates with DDX1-HSPC117-FAM98B in a Novel Transcription-Dependent Shuttling RNA-Transporting Complex” (PLoS ONE, 2014), this text covers binding for 26 molecules.

Protein sequences, listed by entry. Tags and fused reporters are not part of them.
UniProt P05387: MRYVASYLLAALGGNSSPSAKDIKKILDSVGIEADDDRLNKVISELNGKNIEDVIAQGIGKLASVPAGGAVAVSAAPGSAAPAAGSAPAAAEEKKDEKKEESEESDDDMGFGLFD
UniProt O75925: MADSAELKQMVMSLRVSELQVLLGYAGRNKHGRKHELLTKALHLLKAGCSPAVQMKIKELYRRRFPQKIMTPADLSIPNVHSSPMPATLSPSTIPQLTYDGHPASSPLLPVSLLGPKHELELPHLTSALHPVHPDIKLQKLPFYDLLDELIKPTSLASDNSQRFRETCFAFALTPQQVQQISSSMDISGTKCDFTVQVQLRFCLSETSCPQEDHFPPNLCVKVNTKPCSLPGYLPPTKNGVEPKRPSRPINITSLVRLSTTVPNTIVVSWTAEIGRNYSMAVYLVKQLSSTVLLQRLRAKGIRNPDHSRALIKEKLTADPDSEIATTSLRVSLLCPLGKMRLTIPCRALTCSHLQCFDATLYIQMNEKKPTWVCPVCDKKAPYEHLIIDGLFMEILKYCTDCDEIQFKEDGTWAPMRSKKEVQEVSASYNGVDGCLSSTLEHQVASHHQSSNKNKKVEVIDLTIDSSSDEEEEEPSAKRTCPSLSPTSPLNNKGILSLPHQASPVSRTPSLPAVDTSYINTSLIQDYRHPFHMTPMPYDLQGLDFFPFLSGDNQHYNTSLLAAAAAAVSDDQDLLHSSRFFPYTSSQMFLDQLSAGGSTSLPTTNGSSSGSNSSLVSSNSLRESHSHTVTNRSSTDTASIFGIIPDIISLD
UniProt Q13136: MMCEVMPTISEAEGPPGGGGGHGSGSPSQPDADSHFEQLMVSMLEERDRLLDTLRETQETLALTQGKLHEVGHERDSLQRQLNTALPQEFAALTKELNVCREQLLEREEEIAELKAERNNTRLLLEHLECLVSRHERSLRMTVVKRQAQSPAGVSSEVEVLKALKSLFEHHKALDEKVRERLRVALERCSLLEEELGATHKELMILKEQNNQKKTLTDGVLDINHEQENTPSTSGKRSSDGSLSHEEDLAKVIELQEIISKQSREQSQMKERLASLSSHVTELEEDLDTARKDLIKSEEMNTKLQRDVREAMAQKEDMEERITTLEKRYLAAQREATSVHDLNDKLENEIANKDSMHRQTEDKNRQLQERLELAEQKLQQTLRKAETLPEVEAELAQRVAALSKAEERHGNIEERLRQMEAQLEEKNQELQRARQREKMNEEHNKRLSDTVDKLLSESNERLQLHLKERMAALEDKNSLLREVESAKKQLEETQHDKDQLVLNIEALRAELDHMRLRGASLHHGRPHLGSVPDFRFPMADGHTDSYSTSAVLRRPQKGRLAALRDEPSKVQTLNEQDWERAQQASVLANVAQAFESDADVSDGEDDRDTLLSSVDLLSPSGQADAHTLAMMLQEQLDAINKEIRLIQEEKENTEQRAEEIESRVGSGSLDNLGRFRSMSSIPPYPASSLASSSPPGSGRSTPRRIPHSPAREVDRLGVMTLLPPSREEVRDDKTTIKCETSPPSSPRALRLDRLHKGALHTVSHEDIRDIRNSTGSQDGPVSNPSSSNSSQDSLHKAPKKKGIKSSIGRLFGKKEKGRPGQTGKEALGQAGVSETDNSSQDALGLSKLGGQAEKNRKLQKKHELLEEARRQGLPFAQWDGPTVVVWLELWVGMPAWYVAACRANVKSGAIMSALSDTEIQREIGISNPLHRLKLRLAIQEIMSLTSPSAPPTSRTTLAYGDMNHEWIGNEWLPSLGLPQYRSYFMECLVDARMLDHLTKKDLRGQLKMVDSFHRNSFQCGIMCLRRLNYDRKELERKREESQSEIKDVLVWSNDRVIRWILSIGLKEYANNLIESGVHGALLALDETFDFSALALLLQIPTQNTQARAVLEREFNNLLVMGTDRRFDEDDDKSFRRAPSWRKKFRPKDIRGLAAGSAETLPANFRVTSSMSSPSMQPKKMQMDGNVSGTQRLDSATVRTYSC
UniProt P49790: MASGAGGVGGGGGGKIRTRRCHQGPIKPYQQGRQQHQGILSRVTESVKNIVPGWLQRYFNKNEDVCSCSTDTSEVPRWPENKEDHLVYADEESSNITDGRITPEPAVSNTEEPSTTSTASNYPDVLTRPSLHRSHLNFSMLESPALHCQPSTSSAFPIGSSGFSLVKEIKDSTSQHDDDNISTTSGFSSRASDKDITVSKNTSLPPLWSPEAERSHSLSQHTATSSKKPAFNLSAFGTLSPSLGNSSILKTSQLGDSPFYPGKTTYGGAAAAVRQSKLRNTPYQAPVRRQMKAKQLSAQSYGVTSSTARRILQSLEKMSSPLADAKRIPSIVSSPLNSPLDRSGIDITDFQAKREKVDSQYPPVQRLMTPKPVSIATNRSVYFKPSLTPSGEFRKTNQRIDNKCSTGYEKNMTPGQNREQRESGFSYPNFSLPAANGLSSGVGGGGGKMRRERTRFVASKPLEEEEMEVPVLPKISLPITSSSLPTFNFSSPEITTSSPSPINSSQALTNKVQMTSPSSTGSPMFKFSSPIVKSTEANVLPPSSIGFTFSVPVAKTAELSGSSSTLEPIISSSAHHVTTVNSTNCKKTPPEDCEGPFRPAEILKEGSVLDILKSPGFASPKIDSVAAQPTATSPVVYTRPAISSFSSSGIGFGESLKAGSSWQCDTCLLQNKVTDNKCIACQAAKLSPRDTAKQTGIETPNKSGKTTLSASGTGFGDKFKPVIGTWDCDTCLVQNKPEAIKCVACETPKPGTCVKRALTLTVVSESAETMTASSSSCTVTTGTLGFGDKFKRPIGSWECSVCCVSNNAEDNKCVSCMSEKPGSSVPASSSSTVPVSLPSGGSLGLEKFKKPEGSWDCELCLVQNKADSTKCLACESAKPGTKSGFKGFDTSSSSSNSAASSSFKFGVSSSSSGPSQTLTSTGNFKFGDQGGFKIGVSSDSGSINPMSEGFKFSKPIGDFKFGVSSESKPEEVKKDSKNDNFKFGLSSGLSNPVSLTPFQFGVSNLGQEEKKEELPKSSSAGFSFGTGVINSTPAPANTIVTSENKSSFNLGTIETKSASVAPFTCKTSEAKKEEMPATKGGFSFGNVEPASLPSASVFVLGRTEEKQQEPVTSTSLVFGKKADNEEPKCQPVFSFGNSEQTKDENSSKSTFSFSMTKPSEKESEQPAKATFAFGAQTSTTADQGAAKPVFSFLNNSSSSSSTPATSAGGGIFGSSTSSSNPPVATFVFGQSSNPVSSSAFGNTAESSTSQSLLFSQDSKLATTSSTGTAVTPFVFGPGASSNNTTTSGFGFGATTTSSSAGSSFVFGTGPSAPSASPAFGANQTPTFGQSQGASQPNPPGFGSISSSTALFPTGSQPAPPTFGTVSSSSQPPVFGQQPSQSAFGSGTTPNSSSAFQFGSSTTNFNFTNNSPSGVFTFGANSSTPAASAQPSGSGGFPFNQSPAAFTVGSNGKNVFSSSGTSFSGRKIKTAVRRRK
UniProt P11940: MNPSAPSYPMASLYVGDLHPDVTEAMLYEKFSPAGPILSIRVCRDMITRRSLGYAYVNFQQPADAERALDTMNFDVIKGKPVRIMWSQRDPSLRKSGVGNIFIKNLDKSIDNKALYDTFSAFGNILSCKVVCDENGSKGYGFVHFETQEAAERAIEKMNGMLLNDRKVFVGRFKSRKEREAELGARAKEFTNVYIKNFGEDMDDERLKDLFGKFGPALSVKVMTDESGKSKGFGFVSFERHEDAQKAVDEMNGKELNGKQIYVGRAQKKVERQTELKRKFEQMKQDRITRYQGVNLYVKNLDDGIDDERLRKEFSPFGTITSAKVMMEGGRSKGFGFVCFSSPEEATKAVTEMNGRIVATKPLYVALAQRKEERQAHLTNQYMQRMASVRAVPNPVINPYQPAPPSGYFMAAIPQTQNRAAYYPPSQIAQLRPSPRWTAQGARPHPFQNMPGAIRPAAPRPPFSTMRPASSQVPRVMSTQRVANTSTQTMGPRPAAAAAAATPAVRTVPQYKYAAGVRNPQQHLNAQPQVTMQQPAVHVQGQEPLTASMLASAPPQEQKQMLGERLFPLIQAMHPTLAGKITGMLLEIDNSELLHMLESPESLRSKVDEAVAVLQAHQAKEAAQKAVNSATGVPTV
UniProt Q9H4A3: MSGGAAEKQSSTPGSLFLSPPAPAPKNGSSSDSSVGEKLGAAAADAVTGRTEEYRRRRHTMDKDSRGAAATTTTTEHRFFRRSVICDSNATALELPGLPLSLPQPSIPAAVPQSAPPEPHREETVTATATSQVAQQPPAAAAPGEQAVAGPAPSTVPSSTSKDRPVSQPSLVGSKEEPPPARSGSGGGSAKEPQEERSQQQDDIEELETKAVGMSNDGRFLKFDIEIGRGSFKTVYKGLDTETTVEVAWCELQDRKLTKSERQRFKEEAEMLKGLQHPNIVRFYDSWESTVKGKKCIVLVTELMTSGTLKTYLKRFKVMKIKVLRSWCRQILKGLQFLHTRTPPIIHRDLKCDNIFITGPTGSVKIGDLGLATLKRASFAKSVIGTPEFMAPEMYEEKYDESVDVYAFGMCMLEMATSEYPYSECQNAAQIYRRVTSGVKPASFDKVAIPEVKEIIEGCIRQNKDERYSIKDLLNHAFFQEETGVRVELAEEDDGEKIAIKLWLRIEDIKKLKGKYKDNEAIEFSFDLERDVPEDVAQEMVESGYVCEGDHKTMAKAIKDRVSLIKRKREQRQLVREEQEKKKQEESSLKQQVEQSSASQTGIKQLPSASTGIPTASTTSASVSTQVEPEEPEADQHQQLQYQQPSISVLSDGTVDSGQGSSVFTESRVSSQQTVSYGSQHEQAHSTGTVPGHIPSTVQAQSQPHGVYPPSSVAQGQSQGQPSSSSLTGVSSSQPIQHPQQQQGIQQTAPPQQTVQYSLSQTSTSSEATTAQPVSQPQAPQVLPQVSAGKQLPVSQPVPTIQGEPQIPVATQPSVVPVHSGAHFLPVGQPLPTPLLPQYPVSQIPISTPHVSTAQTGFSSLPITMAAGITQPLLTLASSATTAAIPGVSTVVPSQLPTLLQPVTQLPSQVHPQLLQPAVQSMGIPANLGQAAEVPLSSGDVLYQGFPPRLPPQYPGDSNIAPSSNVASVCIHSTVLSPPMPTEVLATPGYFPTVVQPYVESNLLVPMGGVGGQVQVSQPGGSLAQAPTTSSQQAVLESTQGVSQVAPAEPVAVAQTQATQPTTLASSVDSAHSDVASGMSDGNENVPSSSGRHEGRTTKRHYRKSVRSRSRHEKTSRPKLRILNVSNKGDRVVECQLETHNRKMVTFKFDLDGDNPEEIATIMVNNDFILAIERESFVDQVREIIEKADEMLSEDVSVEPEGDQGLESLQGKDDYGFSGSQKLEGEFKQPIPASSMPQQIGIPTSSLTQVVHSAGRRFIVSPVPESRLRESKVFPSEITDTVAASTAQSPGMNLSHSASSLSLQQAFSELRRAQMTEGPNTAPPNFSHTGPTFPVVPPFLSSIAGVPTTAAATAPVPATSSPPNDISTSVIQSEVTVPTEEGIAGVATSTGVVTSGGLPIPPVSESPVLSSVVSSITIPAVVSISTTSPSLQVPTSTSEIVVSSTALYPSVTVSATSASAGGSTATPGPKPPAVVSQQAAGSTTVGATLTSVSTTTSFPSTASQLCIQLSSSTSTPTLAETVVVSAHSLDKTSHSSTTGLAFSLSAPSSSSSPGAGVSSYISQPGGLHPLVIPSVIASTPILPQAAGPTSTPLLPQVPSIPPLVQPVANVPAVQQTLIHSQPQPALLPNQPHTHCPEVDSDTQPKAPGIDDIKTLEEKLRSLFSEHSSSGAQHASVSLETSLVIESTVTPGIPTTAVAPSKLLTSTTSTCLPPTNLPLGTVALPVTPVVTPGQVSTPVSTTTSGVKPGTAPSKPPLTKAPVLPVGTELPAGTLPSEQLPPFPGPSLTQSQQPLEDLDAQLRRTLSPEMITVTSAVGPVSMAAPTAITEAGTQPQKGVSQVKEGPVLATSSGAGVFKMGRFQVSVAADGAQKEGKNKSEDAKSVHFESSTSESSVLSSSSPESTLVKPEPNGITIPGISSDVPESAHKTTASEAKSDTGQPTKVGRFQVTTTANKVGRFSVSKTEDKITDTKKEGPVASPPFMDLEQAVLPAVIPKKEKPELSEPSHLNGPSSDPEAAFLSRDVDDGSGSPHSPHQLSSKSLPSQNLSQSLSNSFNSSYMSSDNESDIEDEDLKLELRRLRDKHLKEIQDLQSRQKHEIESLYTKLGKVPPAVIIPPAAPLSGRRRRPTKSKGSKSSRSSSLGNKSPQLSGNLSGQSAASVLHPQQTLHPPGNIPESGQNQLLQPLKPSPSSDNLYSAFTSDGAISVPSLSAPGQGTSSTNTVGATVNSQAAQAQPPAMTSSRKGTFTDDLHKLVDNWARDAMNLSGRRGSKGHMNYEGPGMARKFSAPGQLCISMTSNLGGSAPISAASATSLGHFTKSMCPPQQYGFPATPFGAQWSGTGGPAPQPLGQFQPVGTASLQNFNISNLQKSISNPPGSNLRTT

Results are given in words; binding and its absence hold for the method and conditions named. In cells and extracts the contact can be indirect. These calls come from enrichment with a bait or labelling near it, and not all partners need be listed. Tags and fused reporters may be left off the sequences shown.

This assay has as its target T1, hCLE-TAP tagged protein, purified as hCLE-CBD (human) (UniProt Q9Y224).
T1 sequence: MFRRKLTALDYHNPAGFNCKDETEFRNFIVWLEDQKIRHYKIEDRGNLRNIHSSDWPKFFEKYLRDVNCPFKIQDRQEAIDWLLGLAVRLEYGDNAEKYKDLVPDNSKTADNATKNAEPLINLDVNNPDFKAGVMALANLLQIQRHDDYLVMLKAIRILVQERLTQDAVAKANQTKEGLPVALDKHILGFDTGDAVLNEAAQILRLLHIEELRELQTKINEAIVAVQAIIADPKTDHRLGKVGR
The assay can be described thus: affinity purification with mass spectrometry; TAP purification of hCLE-TAP from nuclear extracts of transfected HEK293T cells (150 mM NaCl, 10 mM Tris-HCl pH 8.0, 0.1% NP-40); LC-MS/MS; TAP alone as control.

In the case of “60S acidic ribosomal protein P2 (from UniProt P05387 1-115)”, the binding entry is on record as “binds”.
Under “E3 SUMO-protein ligase PIAS1 (from UniProt O75925 1-651)” stands “binds”; under “Kinesin-like protein KIF2A (from UniProt O00139 1-706)”, “binds”; under “Kinesin-like protein KIF20A (from UniProt O95235 1-890)”, “binds”.
As to “LIM domain-binding protein 1 (from UniProt Q86U70 1-411)”, the binding entry is “binds”.
On to “Lamin-B receptor (from UniProt Q14739 1-615)”, for which the binding result is “binds”.
Consider “Liprin-alpha-1 (from UniProt Q13136 1-1202)”, for which the binding result is given as “binds”.
With “Myosin light polypeptide 6 (from UniProt P60660 1-151)”, the binding result is reported as “binds”.
Under Myosin-9 (from UniProt P35579 1-1960) stands “binds”; under Nibrin (from UniProt O60934 1-754), “binds”.
Under “Nuclear pore complex protein Nup153 (from UniProt P49790 1-1475)” stands “binds”; under “Polyadenylate-binding protein 1 (PABP1) (from UniProt P11940 1-636)”, “binds”; under “S-adenosylmethionine synthase isoform type-2 (from UniProt P31153 1-395)”, “binds”.
Under “Serine/threonine-protein kinase WNK1 (from UniProt Q9H4A3 1-2382)” stands “binds”; under “Signal-induced proliferation-associated 1-like protein 2 (from UniProt Q9P2F8 1-1722)”, “binds”.
As to “Splicing factor 3B subunit 2 (from UniProt Q13435 1-895)”, the binding entry is “binds”.
Consider “Transcription factor 4 (from UniProt P15884 1-667)”, for which the binding entry is “binds”.
With “Vasodilator-stimulated phosphoprotein (from UniProt P50552 1-380)”, the binding entry is listed as “binds”.
The result for “YTH domain family protein 3 (from UniProt Q7Z739 1-585)” reads “binds”; that for “signal-induced proliferation-associated 1-like protein 1 (from UniProt O43166 1-1804)”, “binds”.

B1: F-box-like/WD repeat-containing protein (protein, UniProt Q9BQ87 1-522)
chain: MSITSDEVNFLVYRYLQESGFSHSAFTFGIESHISQSNINGTLVPPSALISILQKGLQYVEAEISINKDGTVFDSRPIESLSLIVAVIPDVVQMRQQAFGEKLTQQQASAAATEASAMAKAATMTPAAISQQNPPKNREATVNGEENGAHEINNHSKPMEIDGDVEIPPNKATVLRGHESEVFICAWNPVSDLLASGSGDSTARIWNLNENSNGGSTQLVLRHCIREGGHDVPSNKDVTSLDWNSDGTLLAMGSYDGFARIWTENGNLASTLGQHKGPIFALKWNKKGNYVLSAGVDKTTIIWDAHTGEAKQQFPFHSAPALDVDWQNNMTFASCSTDMCIHVCRLGCDHPVKTFQGHTNEVNAIKWDPSGMLLASCSDDMTLKIWSMKQDACVHDLQAHSKEIYTIKWSPTGPATSNPNSSIMLASASFDSTVRLWDVEQGVCTHTLMKHQEPVYSVAFSPDGKYLASGSFDKYVHIWNTQSGSLVHSYQGTGGIFEVCWNARGDKVGASASDGSVCVLDL
As for B1, the binding result was “binds”.

B2: 5∼-3∼exoribonuclease 2 (protein, UniProt Q9H0D6 1-950)
chain: MGVPAFFRWLSRKYPSIIVNCVEEKPKECNGVKIPVDASKPNPNDVEFDNLYLDMNGIIHPCTHPEDKPAPKNEDEMMVAIFEYIDRLFSIVRPRRLLYMAIDGVAPRAKMNQQRSRRFRASKEGMEAAVEKQRVREEILAKGGFLPPEEIKERFDSNCITPGTEFMDNLAKCLRYYIADRLNNDPGWKNLTVILSDASAPGEGEHKIMDYIRRQRAQPNHDPNTHHCLCGADADLIMLGLATHEPNFTIIREEFKPNKPKPCGLCNQFGHEVKDCEGLPREKKGKHDELADSLPCAEGEFIFLRLNVLREYLERELTMASLPFTFDVERSIDDWVFMCFFVGNDFLPHLPSLEIRENAIDRLVNIYKNVVHKTGGYLTESGYVNLQRVQMIMLAVGEVEDSIFKKRKDDEDSFRRRQKEKRKRMKRDQPAFTPSGILTPHALGSRNSPGSQVASNPRQAAYEMRMQNNSSPSISPNTSFTSDGSPSPLGGIKRKAEDSDSEPEPEDNVRLWEAGWKQRYYKNKFDVDAADEKFRRKVVQSYVEGLCWVLRYYYQGCASWKWYYPFHYAPFASDFEGIADMPSDFEKGTKPFKPLEQLMGVFPAASGNFLPPSWRKLMSDPDSSIIDFYPEDFAIDLNGKKYAWQGVALLPFVDERRLRAALEEVYPDLTPEETRRNSLGGDVLFVGKHHPLHDFILELYQTGSTEPVEVPPELCHGIQGKFSLDEEAILPDQIVCSPVPMLRDLTQNTVVSINFKDPQFAEDYIFKAVMLPGARKPAAVLKPSDWEKSSNGRQWKPQLGFNRDRRPVHLDQAAFRTLGHVMPRGSGTGIYSNAAPPPVTYQGNLYRPLLRGQAQIPKLMSNMRPQDSWRGPPPLFQQQRFDRGVGAEPLLPWNRMLQTQNAAFQPNQYQMLAGPGGYPPRRDDRGGRQGYPREGRKYPLPPPSGRYNWN
With B2, the binding entry is “binds”.

B3: AT-rich interactive domain-containing protein 3A (ARI3A) (protein, UniProt Q99856 1-593)
chain: MKLQAVMETLLQRQQRARQELEARQQLPPDPPAAPPGRARAAPDEDREPESARMQRAQMAALAAMRAAAAGLGHPASPGGSEDGPPGSEEEDAAREGTPGSPGRGREGPGEEHFEDMASDEDMKPKWEEEEMEEDLGEDEEEEEEDYEDEEEEEDEEGLGPPGPASLGTTALFPRKAQPPQAFRGDGVPRVLGGQERPGPGPAHPGGAAHVAPQLQPPDHGDWTYEEQFKQLYELDGDPKRKEFLDDLFSFMQKRGTPVNRIPIMAKQVLDLFMLYVLVTEKGGLVEVINKKLWREITKGLNLPTSITSAAFTLRTQYMKYLYPYECEKRGLSNPNELQAAIDSNRREGRRQSFGGSLFAYSPGGAHGMLSSPKLPVSSLGLAASTNGSSITPAPKIKKEEDSAIPITVPGRLPVSLAGHPVVAAQAAAVQAAAAQAAVAAQAAALEQLREKLESAEPPEKKMALVADEQQRLMQRALQQNFLAMAAQLPMSIRINSQASESRQDSAVNLTGTNGSNSISMSVEINGIMYTGVLFAQPPAPTPTSAPNKGGGGGGGSSSNAGGRGGNTGTSGGQAGPAGLSTPSTSTSNNSLP
With B3, the binding result is recorded as “binds”.

B4: ZW10 interactor (protein, UniProt O95229 1-277)
chain: MEAAETEAEAAALEVLAEVAGILEPVGLQEEAELPAKILVEFVVDSQKKDKLLCSQLQVADFLQNILAQEDTAKGLDPLASEDTSRQKAIAAKEQWKELKATYREHVEAIKIGLTKALTQMEEAQRKRTQLREAFEQLQAKKQMAMEKRRAVQNQWQLQQEKHLQHLAEVSAEVRERKTGTQQELDRVFQKLGNLKQQAEQERDKLQRYQTFLQLLYTLQGKLLFPEAEAEAENLPDDKPQQPTRPQEQSTGDTMGRDPGVSFKAVGLQPAGDVNLP
For B4, the binding entry is “binds”.

B5: Serrate RNA effector molecule homolog (protein, UniProt Q9BXP5 1-876)
chain: MGDSDDEYDRRRRDKFRRERSDYDRSRERDERRRGDDWNDREWDRGRERRSRGEYRDYDRNRRERFSPPRHELSPPQKRMRRDWDEHSSDPYHSGYEMPYAGGGGGPTYGPPQPWGHPDVHIMQHHVLPIQARLGSIAEIDLGVPPPVMKTFKEFLLSLDDSVDETEAVKRYNDYKLDFRRQQMQDFFLAHKDEEWFRSKYHPDEVGKRRQEARGALQNRLRVFLSLMETGWFDNLLLDIDKADAIVKMLDAAVIKMEGGTENDLRILEQEEEEEQAGKPGEPSKKEEGRAGAGLGDGERKTNDKDEKKEDGKQAENDSSNDDKTKKSEGDGDKEEKKEDSEKEAKKSSKKRNRKHSGDDSFDEGSVSESESESESGQAEEEKEEAEEALKEKEKPKEEEWEKPKDAAGLECKPRPLHKTCSLFMRNIAPNISRAEIISLCKRYPGFMRVALSEPQPERRFFRRGWVTFDRSVNIKEICWNLQNIRLRECELSPGVNRDLTRRVRNINGITQHKQIVRNDIKLAAKLIHTLDDRTQLWASEPGTPPLPTSLPSQNPILKNITDYLIEEVSAEEEELLGSSGGAPPEEPPKEGNPAEINVERDEKLIKVLDKLLLYLRIVHSLDYYNTCEYPNEDEMPNRCGIIHVRGPMPPNRISHGEVLEWQKTFEEKLTPLLSVRESLSEEEAQKMGRKDPEQEVEKFVTSNTQELGKDKWLCPLSGKKFKGPEFVRKHIFNKHAEKIEEVKKEVAFFNNFLTDAKRPALPEIKPAQPPGPAQILPPGLTPGLPYPHQTPQGLMPYGQPRPPILGYGAGAVRPAVPTGGPPYPHAPYGAGRGNYDAFRGQGGYPGKPRNRMVRGDPRAIVEYRDLDAPDDVDFF
B5: the binding result was “binds”.

B6: Heterogeneous nuclear ribonucleoprotein R (protein, UniProt O43390 1-633)
chain: MANQVNGNAVQLKEEEEPMDTSSVTHTEHYKTLIEAGLPQKVAERLDEIFQTGLVAYVDLDERAIDALREFNEEGALSVLQQFKESDLSHVQNKSAFLCGVMKTYRQREKQGSKVQESTKGPDEAKIKALLERTGYTLDVTTGQRKYGGPPPDSVYSGVQPGIGTEVFVGKIPRDLYEDELVPLFEKAGPIWDLRLMMDPLSGQNRGYAFITFCGKEAAQEAVKLCDSYEIRPGKHLGVCISVANNRLFVGSIPKNKTKENILEEFSKVTEGLVDVILYHQPDDKKKNRGFCFLEYEDHKSAAQARRRLMSGKVKVWGNVVTVEWADPVEEPDPEVMAKVKVLFVRNLATTVTEEILEKSFSEFGKLERVKKLKDYAFVHFEDRGAAVKAMDEMNGKEIEGEEIEIVLAKPPDKKRKERQAARQASRSTAYEDYYYHPPPRMPPPIRGRGRGGGRGGYGYPPDYYGYEDYYDDYYGYDYHDYRGGYEDPYYGYDDGYAVRGRGGGRGGRGAPPPPRGRGAPPPRGRAGYSQRGAPLGPPRGSRGGRGGPAQQQRGRGSRGSRGNRGGNVGGKRKADGYNQPDSKRRQTNNQQNWGSQPIAQQPLQQGGDYSGNYGYNNDNQEFYQDTYGQQWK
For the molecule B6, the binding result is listed as “binds”.
